No constants are given. Whether binding was seen depends on the method and setting. In cells and extracts the contact can be indirect. Some results given as binding are weak or reduced against the parent protein; the word gives no strength.
Columns and labels:
[1] = molecular target: Cav3.2 calcium channel α-subunit, full length, human (human) (UniProt O95180); assay: co-IP; lysates of tsA-201 cells co-expressing Cav3.2 and myc-tagged KCa1.1 constructs; lysis in 50 mM Tris, 150 mM NaCl, 1% NP-40, 0.5% Na deoxycholate, 0.5% Triton X-100, pH 7.5; precipitated with polyclonal anti-Cav3.2 and Protein A/G beads; blots probed with anti-myc; bead only control
[2] = molecular target: Cav3.2 calcium channel α-subunit, full length, human (human) (UniProt O95180); assay: co-IP; tsA-201 cells co-expressing KCa1.1 and Cav3.2 with either β2 or β4 subunits; data not shown
[3] = molecular target: Cav3.3 channel, endogenous in rat brain (rat (endogenous in brain)) (UniProt Q9Z0Y8); assay: co-IP; lysates of rat brain; data not shown
[4] = molecular target: Cav3.1 channel, endogenous in rat brain (rat (endogenous in brain)) (UniProt O54898); assay: co-IP; lysates of rat brain; data not shown
[5] = molecular target: Cav3.2 protein, endogenous in rat brain (rat (endogenous in brain)) (UniProt Q9EQ60); assay: co-IP; lysates of rat whole brain, cerebellum and brain stem (pontine region); lysis in 50 mM Tris, 150 mM NaCl, 1% NP-40, 0.5% Na deoxycholate, 0.5% Triton X-100, pH 7.5; precipitated with anti-Cav3.2 and Protein A/G beads; blots probed with anti-KCa1.1; control without precipitating antibody

The chains behind the UniProt entries cited, without tags or fusion partners.
UniProt O95180: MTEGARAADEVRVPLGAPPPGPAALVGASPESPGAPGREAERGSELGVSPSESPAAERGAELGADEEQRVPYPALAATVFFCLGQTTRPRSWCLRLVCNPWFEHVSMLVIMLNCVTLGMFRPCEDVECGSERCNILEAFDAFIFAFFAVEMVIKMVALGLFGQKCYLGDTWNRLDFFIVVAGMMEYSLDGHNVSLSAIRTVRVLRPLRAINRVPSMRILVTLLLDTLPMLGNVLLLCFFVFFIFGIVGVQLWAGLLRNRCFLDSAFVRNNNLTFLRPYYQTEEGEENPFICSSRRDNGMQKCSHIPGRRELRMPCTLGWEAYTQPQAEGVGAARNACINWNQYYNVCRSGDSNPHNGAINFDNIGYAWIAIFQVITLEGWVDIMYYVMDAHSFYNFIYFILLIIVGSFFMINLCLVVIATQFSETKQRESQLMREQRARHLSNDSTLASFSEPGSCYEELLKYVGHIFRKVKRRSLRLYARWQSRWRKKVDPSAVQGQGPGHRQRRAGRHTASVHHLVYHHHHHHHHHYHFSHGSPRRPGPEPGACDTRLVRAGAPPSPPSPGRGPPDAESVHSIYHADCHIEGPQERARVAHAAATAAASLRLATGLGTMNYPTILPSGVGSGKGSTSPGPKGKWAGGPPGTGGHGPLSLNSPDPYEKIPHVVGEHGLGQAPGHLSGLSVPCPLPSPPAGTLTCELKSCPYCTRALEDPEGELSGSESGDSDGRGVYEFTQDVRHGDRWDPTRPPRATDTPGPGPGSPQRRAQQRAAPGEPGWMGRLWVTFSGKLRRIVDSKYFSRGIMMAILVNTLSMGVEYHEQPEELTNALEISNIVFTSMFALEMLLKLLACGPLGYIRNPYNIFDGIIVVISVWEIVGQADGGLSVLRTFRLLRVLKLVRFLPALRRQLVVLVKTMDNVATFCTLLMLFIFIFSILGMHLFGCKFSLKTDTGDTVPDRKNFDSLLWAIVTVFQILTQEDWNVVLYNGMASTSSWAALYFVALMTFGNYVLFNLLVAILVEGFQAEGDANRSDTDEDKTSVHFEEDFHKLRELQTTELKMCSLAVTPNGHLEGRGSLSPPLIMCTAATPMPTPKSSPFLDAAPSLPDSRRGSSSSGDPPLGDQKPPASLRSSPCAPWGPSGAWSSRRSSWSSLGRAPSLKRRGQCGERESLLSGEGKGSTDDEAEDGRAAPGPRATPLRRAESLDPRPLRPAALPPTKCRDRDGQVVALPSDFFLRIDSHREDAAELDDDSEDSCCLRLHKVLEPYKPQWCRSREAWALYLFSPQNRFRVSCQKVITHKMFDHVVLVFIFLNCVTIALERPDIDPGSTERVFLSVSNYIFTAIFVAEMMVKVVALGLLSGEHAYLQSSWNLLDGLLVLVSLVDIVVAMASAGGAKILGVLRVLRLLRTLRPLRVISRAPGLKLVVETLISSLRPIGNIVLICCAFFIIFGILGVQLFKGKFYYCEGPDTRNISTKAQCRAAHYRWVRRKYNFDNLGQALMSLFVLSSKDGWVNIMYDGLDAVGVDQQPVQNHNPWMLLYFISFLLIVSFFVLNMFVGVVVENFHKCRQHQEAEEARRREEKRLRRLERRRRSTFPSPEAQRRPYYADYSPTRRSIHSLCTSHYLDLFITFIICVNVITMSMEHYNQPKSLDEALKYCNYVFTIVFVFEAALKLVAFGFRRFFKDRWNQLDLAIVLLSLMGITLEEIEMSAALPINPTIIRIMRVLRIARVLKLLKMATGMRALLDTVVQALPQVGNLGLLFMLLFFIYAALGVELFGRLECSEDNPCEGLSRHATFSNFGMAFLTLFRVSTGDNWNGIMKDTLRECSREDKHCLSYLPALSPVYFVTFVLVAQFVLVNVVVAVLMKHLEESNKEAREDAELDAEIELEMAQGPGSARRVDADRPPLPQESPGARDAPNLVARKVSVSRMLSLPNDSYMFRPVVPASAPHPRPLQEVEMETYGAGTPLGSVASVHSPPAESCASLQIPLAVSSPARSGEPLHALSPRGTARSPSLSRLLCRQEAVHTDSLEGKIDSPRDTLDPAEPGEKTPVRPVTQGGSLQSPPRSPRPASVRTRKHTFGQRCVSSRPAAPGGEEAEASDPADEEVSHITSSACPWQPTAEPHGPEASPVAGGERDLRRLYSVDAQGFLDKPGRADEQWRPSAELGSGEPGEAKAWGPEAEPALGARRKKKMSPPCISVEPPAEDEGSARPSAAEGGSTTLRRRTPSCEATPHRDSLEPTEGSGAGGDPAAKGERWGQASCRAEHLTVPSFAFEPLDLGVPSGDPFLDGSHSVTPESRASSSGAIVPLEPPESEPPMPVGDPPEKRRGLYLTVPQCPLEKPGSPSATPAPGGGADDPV
UniProt Q12791: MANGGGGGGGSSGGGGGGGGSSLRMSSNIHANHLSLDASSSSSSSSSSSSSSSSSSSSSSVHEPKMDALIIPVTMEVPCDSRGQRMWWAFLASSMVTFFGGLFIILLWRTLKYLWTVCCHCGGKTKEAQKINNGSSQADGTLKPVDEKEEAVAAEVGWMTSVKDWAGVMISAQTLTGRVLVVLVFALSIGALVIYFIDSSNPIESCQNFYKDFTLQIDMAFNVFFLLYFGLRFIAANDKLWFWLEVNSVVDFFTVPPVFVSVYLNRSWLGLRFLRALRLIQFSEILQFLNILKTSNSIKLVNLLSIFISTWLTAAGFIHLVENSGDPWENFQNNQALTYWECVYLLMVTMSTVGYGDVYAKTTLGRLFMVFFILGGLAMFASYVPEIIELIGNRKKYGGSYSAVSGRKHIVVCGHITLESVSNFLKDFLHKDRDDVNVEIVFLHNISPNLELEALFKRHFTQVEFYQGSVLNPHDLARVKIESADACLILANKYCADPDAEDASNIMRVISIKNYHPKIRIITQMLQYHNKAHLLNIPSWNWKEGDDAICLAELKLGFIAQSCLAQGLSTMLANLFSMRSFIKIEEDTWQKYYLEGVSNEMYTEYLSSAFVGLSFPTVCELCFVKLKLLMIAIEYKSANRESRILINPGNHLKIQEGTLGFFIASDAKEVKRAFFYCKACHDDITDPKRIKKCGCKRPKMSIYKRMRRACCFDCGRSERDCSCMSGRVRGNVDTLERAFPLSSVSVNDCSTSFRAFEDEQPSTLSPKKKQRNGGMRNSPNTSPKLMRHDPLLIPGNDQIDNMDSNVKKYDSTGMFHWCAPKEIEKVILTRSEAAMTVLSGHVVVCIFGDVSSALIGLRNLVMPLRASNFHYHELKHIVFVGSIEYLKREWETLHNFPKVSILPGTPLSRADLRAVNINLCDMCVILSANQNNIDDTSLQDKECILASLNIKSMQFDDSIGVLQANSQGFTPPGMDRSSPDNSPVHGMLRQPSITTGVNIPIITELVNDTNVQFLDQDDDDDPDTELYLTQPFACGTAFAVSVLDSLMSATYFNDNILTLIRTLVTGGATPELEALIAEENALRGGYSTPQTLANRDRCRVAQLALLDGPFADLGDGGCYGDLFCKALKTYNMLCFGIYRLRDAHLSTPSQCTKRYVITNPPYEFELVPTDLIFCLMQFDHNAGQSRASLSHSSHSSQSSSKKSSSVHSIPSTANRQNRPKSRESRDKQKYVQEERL
UniProt Q62976: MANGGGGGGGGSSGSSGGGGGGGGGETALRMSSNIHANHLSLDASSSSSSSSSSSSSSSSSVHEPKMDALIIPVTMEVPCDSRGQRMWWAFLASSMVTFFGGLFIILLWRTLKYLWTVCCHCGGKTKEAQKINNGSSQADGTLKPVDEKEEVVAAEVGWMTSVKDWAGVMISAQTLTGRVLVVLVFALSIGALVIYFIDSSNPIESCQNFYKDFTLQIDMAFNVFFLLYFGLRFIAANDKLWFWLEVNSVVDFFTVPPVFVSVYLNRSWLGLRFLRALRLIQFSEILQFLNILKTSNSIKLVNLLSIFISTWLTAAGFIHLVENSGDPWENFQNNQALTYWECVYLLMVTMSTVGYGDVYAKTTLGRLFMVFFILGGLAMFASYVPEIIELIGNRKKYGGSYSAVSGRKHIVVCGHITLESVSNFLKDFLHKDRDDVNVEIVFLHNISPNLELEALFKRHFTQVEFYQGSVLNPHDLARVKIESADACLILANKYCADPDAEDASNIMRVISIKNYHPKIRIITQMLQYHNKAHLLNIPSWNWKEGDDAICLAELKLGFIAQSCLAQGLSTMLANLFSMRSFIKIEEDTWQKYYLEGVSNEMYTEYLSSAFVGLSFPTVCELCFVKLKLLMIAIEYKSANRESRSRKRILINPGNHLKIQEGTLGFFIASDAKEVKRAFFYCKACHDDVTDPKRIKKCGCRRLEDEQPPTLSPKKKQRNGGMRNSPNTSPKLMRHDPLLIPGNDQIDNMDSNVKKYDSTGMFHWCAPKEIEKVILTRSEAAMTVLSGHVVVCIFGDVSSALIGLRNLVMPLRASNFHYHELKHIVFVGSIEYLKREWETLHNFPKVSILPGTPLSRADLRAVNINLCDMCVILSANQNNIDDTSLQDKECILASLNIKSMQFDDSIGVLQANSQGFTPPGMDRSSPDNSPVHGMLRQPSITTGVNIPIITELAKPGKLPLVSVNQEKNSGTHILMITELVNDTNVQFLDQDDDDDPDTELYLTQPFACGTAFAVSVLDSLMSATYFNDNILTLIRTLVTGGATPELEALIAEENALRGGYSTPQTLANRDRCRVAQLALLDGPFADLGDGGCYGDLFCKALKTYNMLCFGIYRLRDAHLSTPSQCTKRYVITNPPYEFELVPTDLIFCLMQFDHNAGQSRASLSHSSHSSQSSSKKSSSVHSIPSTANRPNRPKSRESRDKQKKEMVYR

Substance	binding [1]	binding [2]	binding [3]	binding [4]	binding [5]
KCa1.1 potassium channel α-subunit, full length, myc-tagged, human (from UniProt Q12791 1-1236)	binds	binds			
KCa1.1 protein, endogenous in rat brain (from UniProt Q62976 1-1209)			binds	binds	binds
